Experimental data as given in PubChem BioAssay AID540275 (National Center for Advancing Translational Sciences (NCATS), 2011).
About 620 (0.19%) of roughly 320,000 compounds were called active. This list was built around the results that the source calls inconclusive (neither active nor inactive); the mix of calls is not that of the screen. Cut-off read from the data, not from the text of the source: active = activation above about 80%; inconclusive = between about 30% and that limit; inactive = weaker than that.

Protein sequences, listed by entry. Tags and fused reporters are not part of them.
UniProt Q8NER1, whole entry, looked up: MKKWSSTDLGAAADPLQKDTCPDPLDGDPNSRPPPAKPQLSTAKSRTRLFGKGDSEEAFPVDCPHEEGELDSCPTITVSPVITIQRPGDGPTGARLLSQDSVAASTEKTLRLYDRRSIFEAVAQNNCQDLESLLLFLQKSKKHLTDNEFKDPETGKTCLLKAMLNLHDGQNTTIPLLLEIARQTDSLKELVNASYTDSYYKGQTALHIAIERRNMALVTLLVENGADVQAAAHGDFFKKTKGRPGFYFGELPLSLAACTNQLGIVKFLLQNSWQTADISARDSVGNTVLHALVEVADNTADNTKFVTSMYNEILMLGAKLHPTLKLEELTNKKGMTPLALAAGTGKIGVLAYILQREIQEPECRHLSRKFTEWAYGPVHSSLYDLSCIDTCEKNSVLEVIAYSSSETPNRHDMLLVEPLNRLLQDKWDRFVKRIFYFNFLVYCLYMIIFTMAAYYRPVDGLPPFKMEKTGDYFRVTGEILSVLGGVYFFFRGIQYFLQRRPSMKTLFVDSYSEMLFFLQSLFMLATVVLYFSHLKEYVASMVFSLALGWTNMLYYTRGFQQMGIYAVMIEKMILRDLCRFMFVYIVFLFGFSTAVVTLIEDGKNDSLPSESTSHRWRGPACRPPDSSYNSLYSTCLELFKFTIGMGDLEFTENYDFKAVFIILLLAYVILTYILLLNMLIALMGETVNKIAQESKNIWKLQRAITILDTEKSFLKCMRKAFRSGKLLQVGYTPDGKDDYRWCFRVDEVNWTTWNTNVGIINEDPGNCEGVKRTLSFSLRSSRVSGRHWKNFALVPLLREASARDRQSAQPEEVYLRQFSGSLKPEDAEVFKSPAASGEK

Biological target: Transient receptor potential cation channel subfamily V member 1 (Homo sapiens) (UniProt Q8NER1)
Assay: HTS Assay for Compounds that Act as Agonists of the Vanilloid Receptor 1; note: 0% is about no effect
Conditions: TRPV1-expressing cells, Fluo-8 calcium influx, agonist mode; at 8.33 µM, active compounds read high
Procedure, shortened: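 Fluo-8 calcium influx in TRPV1-expressing cells, kinetic read (ex 480/em 520 nm). Compound added and read 3 min for agonist activity, followed by capsaicin at EC20 final and 2 min further read for enhancement.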

Row | Compound | activation
1 | O=C(CSc1nnnn1Cc1ccccc1)c1ccc(F)cc1 | inconclusive: 44.2%
2 | CCCN1Cc2cccc(C(=O)NCc3ccc4c(c3)OCO4)c2C1=O | inconclusive: 46.3%
3 | CC(=O)c1cccc(NC(=S)NCCc2ccc(F)cc2)c1 | inconclusive: 65.9%
4 | COc1ccc(C/C(N)=N/OC(=O)C(c2ccccc2)c2ccccc2)cc1OC | inconclusive: 34.6%
5 | Cc1ccc(CONC(=O)c2ccccc2)cc1 | inconclusive: 42.5%
6 | O=C(Nc1ccccc1)Nc1ccc(F)cc1F | inconclusive: 76.5%
7 | COc1cccc(NC(=O)COC(=O)c2c(NC(C)=O)sc(C)c2C)c1 | inactive: -1.53%
8 | COc1ccccc1NC(=O)CSCc1ccc([N+](=O)[O-])cc1 | inactive: 2.74%
9 | Fc1ccc(C2CCCN2Cc2nc(Cc3ccccc3F)no2)cc1 (configuration not stated) | inconclusive: 36.5%
10 | COc1ccc(Cl)cc1NC(=O)CN(C)C(=O)c1cc2c(s1)CCCC2 | inconclusive: 31.3%
11 | CC(C)c1ccc(NC(=S)NCc2ccc3c(c2)OCO3)cc1 | inconclusive: 50.1%
12 | Cc1ccc(C)c(S(=O)(=O)Nc2cc(SCC(=O)O)c(O)c3ccccc23)c1 | inactive: 2.44%
13 | COc1ccccc1Nc1nc(N)nc(CN2CCC(C)CC2)n1 | inactive: -3.38%
14 | CCn1c(SCC(=O)c2cc(OC)ccc2OC)nnc1C(C)C | inconclusive: 38.4%
15 | CCOC(=O)c1cnc2c(C)cc(Cl)cc2c1NCCCN1CCOCC1 | inconclusive: 34.7%
16 | CCc1ccc(NC(=O)C(=O)NCc2ccccn2)cc1 | inconclusive: 45.3%
17 | Cc1ccc2nc3c(cc(C(=O)NCc4ccco4)c(=N)n3Cc3ccco3)c(=O)n2c1 | inconclusive: 32%
18 | O=C(c1ccc(COc2ccc(Cl)cc2)cc1)N1CCCCC1 | inconclusive: 32.9%
19 | CCOC(=O)c1ccc(Nc2nnc(C)c3ccccc23)cc1 | active: 86.4%
20 | CCC(C)NC(=O)CCn1c(-c2ccccc2)cc(C(C)=O)c1C (configuration not stated) | inconclusive: 30.8%
21 | Cc1ccc(CCNC(=O)C2CC(c3cccc(F)c3)=NO2)cc1 (configuration not stated) | inactive: -4.47%
22 | CC1CC(C)CN(S(=O)(=O)c2ccc3c(c2)CC(C)N3C(=O)C2CC2)C1 (configuration not stated) | inconclusive: 47.6%
23 | O=S(=O)(Nc1ccc(N2CCCCC2)cc1)c1ccccc1F | inconclusive: 32.4%

Row | Compound | activation
24 | CC(C)c1nc(SCC(=O)c2ccc(F)cc2)c2ccccc2n1 | inconclusive: 63.5%
25 | N#C/C(=C\c1ccco1)c1nc2ccccc2s1 | inconclusive: 36.7%
26 | Cc1ccc(C(=O)NCCc2c[nH]c3ccccc23)s1 | inconclusive: 33.8%
27 | CC(=O)/C=C\c1cn(-c2ncc(C(F)(F)F)cc2Cl)c2ccccc12 | inconclusive: 34.8%
28 | COc1ccc(C(=O)/C=C/C(=O)N(Cc2ccccc2OC)C(C(=O)NC2CCCCC2)c2ccncc2)c(O)c1 (configuration not stated) | inconclusive: 36.8%
29 | CCOc1cc(-c2nccc3cc(OC)c(OC)cc23)cc(OCC)c1OCC | inconclusive: 34.8%
30 | Cc1ccc(OCc2n[nH]c(=S)n2N)cc1C | inactive: 11.6%
31 | O=c1/c(=C/c2ccc(O)cc2)sc2n1CCCN=2 | inactive: -1.69%
32 | COCCOc1cc(NC(=O)c2ccccc2)c(Cl)cc1Cl | inconclusive: 41.1%
33 | Cc1ccc(S(=O)(=O)c2cc(Nc3ccccc3)ccc2O)cc1 | inconclusive: 35.7%
34 | CN1CCN(c2ccc(NC(=O)c3ccc(Br)o3)cc2)CC1 | inactive: 3.4%
35 | CN(CC(=O)Nc1ccccc1Cl)C(=O)COC(=O)Cc1c(F)cccc1Cl | inactive: 7.18%
36 | O=C(NCc1ccc2c(c1)OCO2)NC12CC3CC(CC(C3)C1)C2 | inconclusive: 37.7%
37 | CCOc1ccc(C2=NNC(c3cccs3)=Nc3ccc(OC)cc32)cc1OCC | inactive: 27.7%
38 | CS(=O)(=O)N(CCC#N)Cc1ccc(/C=C2\C(=O)Nc3ccccc32)o1 | inactive: 1.51%
39 | CC1CC(C)CN(C(=O)COC(=O)c2c[nH]c3ccccc23)C1 (configuration not stated) | inconclusive: 35.1%
40 | CC1CCC(NC(=O)c2ccc3snnc3c2)CC1 (configuration not stated) | inconclusive: 54.5%
41 | COc1cccc2c(=O)c3c(cnn3C)n(C)c12 | inactive: 0.193%
42 | CCCNC(=S)NNC(=O)c1cc(C2CC2)nc2ccccc12 | inactive: -3.19%
43 | CSc1nsc(SCC(=O)Nc2ccccc2)n1 | inconclusive: 38.4%
44 | CCOc1ccccc1-n1c(SCC(=O)NC2CCCC2)nnc1-c1ccoc1C | inconclusive: 32.9%
45 | CCN(CC)CCn1c2c(c(SCC(=O)Nc3ccccc3Cl)nc1=O)CCCC2 | inactive: 1.9%
46 | COc1cc(NC(=O)CN2CCN(c3ccccc3O)CC2)c(C)cc1[N+](=O)[O-] | inactive: 0.493%

Row | Compound | activation
47 | Cc1sc(NC(=O)c2ccco2)c(C(c2ccccc2)N2CCC(C)CC2)c1C (configuration not stated) | inconclusive: 36.1%
48 | Cc1ccc(N2CC(C(=O)Nc3ccc4c(c3)OCCO4)CC2=O)cc1C (configuration not stated) | inconclusive: 60.4%
49 | COc1cccc(CNC(=S)Nc2cc(OC)ccc2OC)c1 | inconclusive: 44.4%
50 | O=C1/C(=C/N(C(=O)c2ccco2)c2ccc(Cl)cc2)Sc2ccccc21 | inconclusive: 51.3%
51 | Cc1ccsc1-c1nc(CN2CCCC2c2ccc(F)cc2)c(C)o1 (configuration not stated) | inactive: 6.81%
52 | CCNc1ccc(C(=O)OCC(=O)Nc2cc(C)on2)cc1[N+](=O)[O-] | inactive: -0.023%
53 | C=CCOC(=O)C1=C[C@@H](c2ccc(Br)cc2)C[C@@H](OCc2ccc(CO)cc2)O1 | inconclusive: 56.7%
54 | COc1cc(N/N=C/c2ccccc2O)ncn1 | inactive: -0.089%
55 | NC(=O)COC(=O)c1ccc(Oc2ccccc2)cc1 | inconclusive: 47%
56 | CCOC(=O)[C@H]1[C@H]2COc3ccccc3[C@@H]2N2C(=O)c3cc(Br)ccc3NC(=O)[C@@]12C | inconclusive: 61.5%
57 | CC(C)CN1C(=O)/C(=C(/C#N)C(=O)NC2CCCCC2)c2ccccc21 | inconclusive: 34.4%
58 | O=c1c2ccccc2ncn1/N=C/c1ccccc1 | inconclusive: 50.7%
59 | CN(C)c1ccc(/C=C2\NC(=S)N(Cc3ccccc3)C2=O)cc1 | active: 82.1%
60 | Cc1ccc(NC(=O)C(C)OC(=O)Cc2c[nH]c3ccccc23)cc1 (configuration not stated) | inconclusive: 31.4%
61 | CCSc1nnc2c(n1)[nH]c1c(C)cccc12 | inconclusive: 31.5%
62 | Cc1ccc(C2C(=O)N(C3CCCC3)CC(=O)N2C2CCCCC2)cc1 (configuration not stated) | inconclusive: 53.7%
63 | CCOC(CNC(=O)c1cccn2c(=O)c3c(C)c(C)sc3nc12)OCC | inconclusive: 32.5%
64 | CCCCSc1cnn(-c2ccccc2)c(=O)c1SCCCC | inconclusive: 44.2%
65 | Cc1ccc(C(=O)Nc2ccncc2)c(C)c1 | inconclusive: 32.8%
66 | O=C(c1cccc(S(=O)(=O)N2CCc3ccccc32)c1)N1CCN(c2ccccc2)CC1 | inactive: -2.05%
67 | O=C(OCC(=O)N1CCOCC1)C(c1ccccc1)c1ccccc1 | inconclusive: 43.7%
68 | Cc1cc(Nc2ccccc2)nc(NCc2ccccc2)n1 | inconclusive: 55.7%
69 | CC1CCCC(C)N1C(=O)/C=C/c1ccc(S(=O)(=O)N2CCOCC2)cc1 (configuration not stated) | inconclusive: 41%

Row | Compound | activation
70 | Cc1cc(=O)oc(C)c1C(=O)OC(C(=O)c1ccccc1)c1ccccc1 (configuration not stated) | inactive: 20.3%
71 | Cc1ccc(S(=O)(=O)CCC(=O)N(C)C2CCCCC2)cc1 | inactive: 20.9%
72 | Cc1cc(C)c2nc3sc(C(=O)N4CCOCC4)c(N)c3cc2c1 | inconclusive: 57.3%
73 | Cc1ccc(N=C/C(C(=O)C(F)(F)F)=C(\O)c2cccs2)cc1 | inconclusive: 38.4%
74 | Cc1cccc(N2CCN(C(=O)Cc3ccccc3[N+](=O)[O-])CC2)c1C | inconclusive: 54.4%
75 | CN1C(=O)NC(c2ccc(C(F)(F)F)cc2)C2=C1CC(C)(C)CC2=O (configuration not stated) | inactive: -4.39%
76 | O=C(/C=C/c1cn(-c2ccccc2)nc1-c1cccnc1)N1CCCCC1 | inconclusive: 69.5%
77 | Cc1cccc(NC(=O)COc2ccc(Br)cc2C)n1 | inconclusive: 41.1%
78 | O=[N+]([O-])c1cccc2nc(-c3ccccc3)c(-c3ccccc3)nc12 | inactive: 5.68%
79 | CCCCn1c(SCC(=O)N2CCOCC2)nc2ccccc2c1=O | inconclusive: 60.9%
80 | CCn1nnnc1SCC(=O)N(C1CCCCC1)C1CCCCC1 | inconclusive: 43.4%
81 | Cc1ccc2nc(C(=O)N3CCCC(Nc4ccc(F)cc4)C3)cn2c1 (configuration not stated) | inconclusive: 35.4%
82 | Cc1cc(Br)cc(C)c1OCC(=O)NNC(=O)CCC(=O)NCc1ccccc1 | inconclusive: 42.8%
83 | CC[C@@H](C)[C@H](NC(=O)Cc1c(C)c2c(cc(C)c3c(C)c(C)oc32)oc1=O)C(=O)O | inconclusive: 37.1%
84 | Cc1cccc(N2CCN(C(=O)c3ccccn3)CC2C)c1 (configuration not stated) | inconclusive: 66.5%
85 | CCOC(=O)Cn1nc(-c2ccccc2)c2cnc3ccc(C)cc3c21 | inactive: -6.37%
86 | CCc1cc2ccccc2nc1SCC(=O)Nc1cc(C)on1 | inactive: 16.4%
87 | COc1cc(C(=O)N/N=C/c2sccc2C)cc(OC)c1OC | inactive: 0.138%
88 | CCc1nnc(NC(=O)CSc2nnc(-c3ccccc3O)n2-c2ccc(C)cc2C)s1 | inactive: -1.11%
89 | CCC1CCc2c(sc(NC(=O)c3ccco3)c2C(N)=O)C1 (configuration not stated) | inconclusive: 45.3%
90 | COc1ccc2c(c1)c(C(=O)N/N=C/c1cccc(Br)c1)c(C)n2C | inactive: -2.88%
91 | O=C1CCC(c2ccccc2)(c2ccccc2)CC1 | inconclusive: 49.9%
92 | O=C(/C=C/c1ccc(Cl)c(Cl)c1)N1CCOCC1 | inconclusive: 70%

5 entries from above in another layout.
Row	Compound	activation
72	Cc1cc(C)c2nc3sc(C(=O)N4CCOCC4)c(N)c3cc2c1	inconclusive: 57.3%
75	CN1C(=O)NC(c2ccc(C(F)(F)F)cc2)C2=C1CC(C)(C)CC2=O (configuration not stated)	inactive: -4.39%
77	Cc1cccc(NC(=O)COc2ccc(Br)cc2C)n1	inconclusive: 41.1%
78	O=[N+]([O-])c1cccc2nc(-c3ccccc3)c(-c3ccccc3)nc12	inactive: 5.68%
81	Cc1ccc2nc(C(=O)N3CCCC(Nc4ccc(F)cc4)C3)cn2c1 (configuration not stated)	inconclusive: 35.4%
